Measured values published in patent US11370801B2, “Pyrrolobenzodiazepine conjugates” (priority 2017, dated 2022).

Each compound was assayed on NCI-N87 (assay: Therapeutic index: MTD in rat / MED in mouse efficacy model).
Format: in vivo
Protocol: The therapeutic index of each ADC/drug linker was calculated using the following equation: TI=MTD in rat (mg/kg)/MED in mouse efficacy model (mg/kg)

Compared with `COc1cc2c(cc1OCCCOc1cc3c(cc1OC)C(=O)N1CCC[C@H]1[C@H](O)N3C(=O)OCc1ccc(NC(=O)[C@H](C)NC(=O)[C@@H](NC(=O)CCOCCOCCOCCOCCOCCOCCOCCOCCNC(=O)CCN3C(=O)C=CC3=O)C(C)C)cc1)N=C[C@@H]1CCCN1C2=O` [Compound 1, 4-((2S,5S)-37-(2,5-dioxo-2,5-dihydro-1H-pyrrol-1-yl)-5-isopropyl-2-methyl-4,7,35-trioxo-10,13,16,19,22,25,28,31-octaoxa-3,6,34-triazaheptatriacontanamido)benzyl(11S,11aS)-11-hydroxy-7-methoxy-8-(3-(((S)-7-methoxy-5-oxo-2,3,5,11a-tetrahydro-1H-pyrrolo[2,1-c][1,4]benzodiazepin-8-yl)oxy)propoxy)-5-oxo-2,3,11,11a-tetrahydro-1H-pyrrolo[2,1-c][1,4]benzodiazepine-10(5H)-carboxylate], `COc1cc2c(cc1OCc1cccc(COc3cc4c(cc3OC)C(=O)N3CCC[C@H]3[C@H](O)N4C(=O)OCc3ccc(NC(=O)[C@H](C)NC(=O)[C@@H](NC(=O)CCOCCOCCOCCOCCOCCOCCOCCOCCNC(=O)CCN4C(=O)C=CC4=O)C(C)C)cc3)c1)N=C[C@@H]1CCCN1C2=O` [Compound 3, 4-((2S,5S)-37-(2,5-dioxo-2,5-dihydro-1H-pyrrol-1-yl)-5-isopropyl-2-methyl-4,7,35-trioxo-10,13,16,19,22,25,28,31-octaoxa-3,6,34-triazaheptatriacontanamido)benzyl (11S,11aS)-11-hydroxy-7-methoxy-8-((3-((((S)-7-methoxy-5-oxo-2,3,5,11a-tetrahydro-1H-benzo[e]pyrrolo[1,2-a][1,4]diazepin-8-yl)oxy)methyl)benzyl)oxy)-5-oxo-2,3,11,11a-tetrahydro-1H-benzo[e]pyrrolo[1,2-a][1,4]diazepine-10(5H)-carboxylate] is lower in “TI (therapeutic index)” value: 4.2 for the first, 4 for the second.

With `COc1cc2c(cc1OCCCOc1cc3c(cc1OC)C(=O)N1CCC[C@H]1[C@H](O)N3C(=O)OCc1ccc(NC(=O)[C@H](C)NC(=O)[C@@H](NC(=O)CCOCCOCCOCCOCCOCCOCCOCCOCCNC(=O)CCN3C(=O)C=CC3=O)C(C)C)cc1)N=C[C@@H]1CCCN1C2=O` [Compound 2, 4-((2S,5S)-37-(2,5-dioxo-2,5-dihydro-1H-pyrrol-1-yl)-5-isopropyl-2-methyl-4,7,35-trioxo-10,13,16,19,22,25,28,31-octaoxa-3,6,34-triazaheptatriacontanamido)benzyl(11S,11aS)-11-hydroxy-7-methoxy-8-(3-(((S)-7-methoxy-5-oxo-2,3,5,11a-tetrahydro-1H-pyrrolo[2,1-c][1,4]benzodiazepin-8-yl)oxy)propoxy)-5-oxo-2,3,11,11a-tetrahydro-1H-pyrrolo[2,1-c][1,4]benzodiazepine-10(5H)-carboxylate] the “TI (therapeutic index)” value was 4.
